Results as given in patent publication US12436145B2, “Cryptic antibiotics and methods for detecting bioactive cryptic metabolites” (THE TRUSTEES OF PRINCETON UNIVERSITY, priority 2019, dated 2025).
For at least one compound, name, drawing or mass did not settle the structure.

Columns and labels:
[1] = tested on: S. cebuensis; conditions: S. cebuensis cultures treated with elicitor
[2] = tested on: S. cebuensis; experiment: Elicitor screening, supernatants on E. coli cultures (OD600 nm); assay type: cell-based, Saccharopolyspora cebuensis; conditions: S. cebuensis grown with elicitor, supernatant on E. coli
Experimental: Wild-type S. cebuensis cultures were transferred to 96 well-plates and each well was robotically supplemented with a compound from a commercial small molecule library as a source of elicitors. […] To grow the cells, the plates were incubated for a defined period. […] The OD600 nm from each well was normalized and the % E. coli growth thus obtained was plotted as a function of each elicitor, allowing one to identify at least one elicitor corresponding to a second activity greater than the first activity.

[3] = tested on: A. keratiniphila; experiment: Elicitor screening, supernatants in liquid bioassay against E. coli; assay type: cell-based, Amycolatopsis kerathiniphila; conditions: A. keratiniphila grown with ~33 μM elicitor; supernatant on E. coli, OD600 nm
Experimental: For the high-throughput-elicitor screening portion of this example, the procedure is described for S. hiroshimensis. An identical procedure was used for S. lavendulae and A. keratiniphila. […] The culture was incubated at 30° C./250 rpm for two days. Then, the mycelia cell mass was pelleted by centrifugation, the supernatant discarded, and a stock solution of 100 mg/mL cell mass was generated in R4 medium. The stock solution was used to prepare the appropriate volume (see below) of R4 medium containing 0.5 mg/mL mycelia cell mass in a 250 mL Erlenmeyer flask. The suspension was homogenized by stirring at room temperature. Subsequently, a MultiFlow Dispenser (from Biotek, Inc.) was used to dispense 150 μL of the suspension into each well of six sterile round bottom 96 well plates (from Corning, Inc.). […]
From the elicitor plates, after culturing for 5 days, the plates were spun down in a 96-well plate centrifuge and the supernatants (10 μL) transferred to fresh 96-well assay plates, each well containing 100 μL LB-E. coli culture, with the E. coli cells inoculated to an initial OD600 nm OD600 nm of 0.002. The assay plates were cultured at 37° C./200 rpm overnight (10-12 h) and OD600 nm was then determined using a plate reader. […]

## CC(C)OC(=O)C(C)(C)Oc1ccc(C(=O)c2ccc(Cl)cc2)cc1 [fenofibrate]
[1]
  induction of secondary metabolites (HPLC-MS profiling): appearance of several induced metabolites
[2]
  effect of elicitor-induced metabolome on E. coli growth: inhibited it

## COc1cc2c(N3CCN(C(=O)Nc4ccc(OC(C)C)cc4)CC3)ncnc2cc1OCCCN1CCCCC1 [tandutinib]
[3]
  effect of elicitor-induced metabolome on E. coli growth: enhanced E. coli growth
